# Experimental data taken from the supplement of paper PMC12819154, “High-throughput peptide-centric local stability assay extends protein–ligand identification to membrane proteins, tissues and bacteria” (Nature Structural & Molecular Biology, 2025).
# Sequences of proteins named here, by UniProt entry; tags and fusion partners are left off. A change or cut given only in a name is not applied to a line headed by its entry.
# UniProt P35251: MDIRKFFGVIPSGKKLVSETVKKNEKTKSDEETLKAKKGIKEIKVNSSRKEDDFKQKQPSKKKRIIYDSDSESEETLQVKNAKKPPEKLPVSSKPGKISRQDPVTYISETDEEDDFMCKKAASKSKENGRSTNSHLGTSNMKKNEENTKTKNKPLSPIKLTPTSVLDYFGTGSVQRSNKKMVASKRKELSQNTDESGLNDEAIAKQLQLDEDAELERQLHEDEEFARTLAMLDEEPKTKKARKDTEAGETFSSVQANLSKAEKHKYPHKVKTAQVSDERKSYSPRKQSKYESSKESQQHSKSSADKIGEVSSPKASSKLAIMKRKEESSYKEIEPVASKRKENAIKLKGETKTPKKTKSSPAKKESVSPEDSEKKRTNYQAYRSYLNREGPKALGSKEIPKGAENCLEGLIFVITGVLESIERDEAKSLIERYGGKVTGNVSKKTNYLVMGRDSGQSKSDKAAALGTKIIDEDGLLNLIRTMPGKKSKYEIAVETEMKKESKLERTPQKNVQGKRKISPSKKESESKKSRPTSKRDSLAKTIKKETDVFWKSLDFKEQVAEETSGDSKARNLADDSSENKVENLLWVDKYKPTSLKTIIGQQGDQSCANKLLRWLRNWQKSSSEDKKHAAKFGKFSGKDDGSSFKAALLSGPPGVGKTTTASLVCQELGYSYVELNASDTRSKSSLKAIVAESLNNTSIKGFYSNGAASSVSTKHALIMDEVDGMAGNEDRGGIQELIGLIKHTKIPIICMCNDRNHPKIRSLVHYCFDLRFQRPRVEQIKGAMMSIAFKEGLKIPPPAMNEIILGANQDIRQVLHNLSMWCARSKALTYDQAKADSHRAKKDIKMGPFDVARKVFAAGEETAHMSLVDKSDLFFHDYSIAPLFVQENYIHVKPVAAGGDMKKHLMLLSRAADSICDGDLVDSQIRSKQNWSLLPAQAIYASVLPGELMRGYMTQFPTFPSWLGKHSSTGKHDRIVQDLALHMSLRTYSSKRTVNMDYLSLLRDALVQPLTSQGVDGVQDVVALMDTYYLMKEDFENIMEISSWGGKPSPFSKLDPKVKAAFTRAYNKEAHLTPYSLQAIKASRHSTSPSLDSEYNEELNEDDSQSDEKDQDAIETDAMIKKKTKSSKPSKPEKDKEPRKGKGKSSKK
# UniProt P30291: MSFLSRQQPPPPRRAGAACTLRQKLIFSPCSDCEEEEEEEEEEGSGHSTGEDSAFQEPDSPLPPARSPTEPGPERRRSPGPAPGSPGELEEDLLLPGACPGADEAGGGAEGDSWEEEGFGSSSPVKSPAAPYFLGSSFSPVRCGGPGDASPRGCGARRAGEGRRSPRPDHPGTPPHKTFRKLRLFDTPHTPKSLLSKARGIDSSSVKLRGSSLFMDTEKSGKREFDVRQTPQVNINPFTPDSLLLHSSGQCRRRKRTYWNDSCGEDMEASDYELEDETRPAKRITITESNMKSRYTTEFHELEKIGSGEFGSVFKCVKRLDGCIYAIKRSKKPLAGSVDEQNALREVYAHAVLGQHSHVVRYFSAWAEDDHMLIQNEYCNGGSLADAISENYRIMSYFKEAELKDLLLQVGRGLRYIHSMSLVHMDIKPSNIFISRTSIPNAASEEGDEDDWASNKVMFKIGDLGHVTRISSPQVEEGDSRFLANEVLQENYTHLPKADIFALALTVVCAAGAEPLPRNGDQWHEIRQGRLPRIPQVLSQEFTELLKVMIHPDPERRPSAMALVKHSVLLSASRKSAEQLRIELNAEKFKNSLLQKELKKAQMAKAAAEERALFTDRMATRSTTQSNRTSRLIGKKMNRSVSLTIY
# UniProt P35244: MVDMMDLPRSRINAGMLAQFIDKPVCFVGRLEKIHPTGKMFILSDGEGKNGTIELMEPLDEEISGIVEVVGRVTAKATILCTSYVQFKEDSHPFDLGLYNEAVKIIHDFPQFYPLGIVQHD
# UniProt P29084: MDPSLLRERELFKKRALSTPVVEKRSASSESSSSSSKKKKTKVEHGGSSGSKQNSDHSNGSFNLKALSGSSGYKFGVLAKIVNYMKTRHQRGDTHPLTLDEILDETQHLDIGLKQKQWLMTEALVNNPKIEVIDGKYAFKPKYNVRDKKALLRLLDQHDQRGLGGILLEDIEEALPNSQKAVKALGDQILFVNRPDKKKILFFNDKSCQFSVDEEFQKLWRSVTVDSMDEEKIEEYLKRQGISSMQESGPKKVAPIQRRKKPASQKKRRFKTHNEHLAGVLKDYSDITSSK
# UniProt P40763, whole entry: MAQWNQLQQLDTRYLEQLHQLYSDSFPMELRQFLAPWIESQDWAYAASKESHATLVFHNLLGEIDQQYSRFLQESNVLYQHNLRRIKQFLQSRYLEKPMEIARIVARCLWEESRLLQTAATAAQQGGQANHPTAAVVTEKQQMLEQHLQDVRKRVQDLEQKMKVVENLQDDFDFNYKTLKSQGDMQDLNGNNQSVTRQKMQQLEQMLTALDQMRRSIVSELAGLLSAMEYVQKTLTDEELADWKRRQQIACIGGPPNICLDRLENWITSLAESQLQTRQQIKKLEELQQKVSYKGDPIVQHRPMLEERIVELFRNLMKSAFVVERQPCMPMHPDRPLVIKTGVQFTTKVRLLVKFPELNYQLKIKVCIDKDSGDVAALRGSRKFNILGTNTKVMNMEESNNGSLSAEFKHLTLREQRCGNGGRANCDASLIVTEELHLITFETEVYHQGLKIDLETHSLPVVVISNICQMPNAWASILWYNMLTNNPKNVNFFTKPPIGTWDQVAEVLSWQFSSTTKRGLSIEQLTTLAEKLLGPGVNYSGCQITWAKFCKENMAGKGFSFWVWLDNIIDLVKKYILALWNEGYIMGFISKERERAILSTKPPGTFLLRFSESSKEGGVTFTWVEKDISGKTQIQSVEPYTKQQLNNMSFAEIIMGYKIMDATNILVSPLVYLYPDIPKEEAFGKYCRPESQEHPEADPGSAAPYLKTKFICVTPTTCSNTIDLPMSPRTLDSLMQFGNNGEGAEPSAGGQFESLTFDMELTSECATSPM
# UniProt P30740: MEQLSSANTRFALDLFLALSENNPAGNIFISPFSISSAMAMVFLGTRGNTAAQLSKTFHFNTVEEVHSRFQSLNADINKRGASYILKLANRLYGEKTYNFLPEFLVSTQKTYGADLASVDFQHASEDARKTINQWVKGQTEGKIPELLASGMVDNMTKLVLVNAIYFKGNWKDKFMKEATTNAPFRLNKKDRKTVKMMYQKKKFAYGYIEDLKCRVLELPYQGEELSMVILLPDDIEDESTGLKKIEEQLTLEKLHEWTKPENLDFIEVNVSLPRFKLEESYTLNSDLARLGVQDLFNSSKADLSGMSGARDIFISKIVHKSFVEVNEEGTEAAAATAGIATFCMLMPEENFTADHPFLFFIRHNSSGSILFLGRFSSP
# UniProt P30044: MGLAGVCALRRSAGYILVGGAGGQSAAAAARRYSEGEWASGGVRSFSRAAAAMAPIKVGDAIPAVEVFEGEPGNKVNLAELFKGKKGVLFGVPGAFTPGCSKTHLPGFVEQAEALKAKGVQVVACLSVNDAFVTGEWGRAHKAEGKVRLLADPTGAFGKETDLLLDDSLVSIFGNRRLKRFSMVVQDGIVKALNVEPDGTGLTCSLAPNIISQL
# UniProt P35754: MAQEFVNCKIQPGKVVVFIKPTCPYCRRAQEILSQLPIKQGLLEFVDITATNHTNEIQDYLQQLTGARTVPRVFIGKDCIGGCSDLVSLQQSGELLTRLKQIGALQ
# UniProt P35610: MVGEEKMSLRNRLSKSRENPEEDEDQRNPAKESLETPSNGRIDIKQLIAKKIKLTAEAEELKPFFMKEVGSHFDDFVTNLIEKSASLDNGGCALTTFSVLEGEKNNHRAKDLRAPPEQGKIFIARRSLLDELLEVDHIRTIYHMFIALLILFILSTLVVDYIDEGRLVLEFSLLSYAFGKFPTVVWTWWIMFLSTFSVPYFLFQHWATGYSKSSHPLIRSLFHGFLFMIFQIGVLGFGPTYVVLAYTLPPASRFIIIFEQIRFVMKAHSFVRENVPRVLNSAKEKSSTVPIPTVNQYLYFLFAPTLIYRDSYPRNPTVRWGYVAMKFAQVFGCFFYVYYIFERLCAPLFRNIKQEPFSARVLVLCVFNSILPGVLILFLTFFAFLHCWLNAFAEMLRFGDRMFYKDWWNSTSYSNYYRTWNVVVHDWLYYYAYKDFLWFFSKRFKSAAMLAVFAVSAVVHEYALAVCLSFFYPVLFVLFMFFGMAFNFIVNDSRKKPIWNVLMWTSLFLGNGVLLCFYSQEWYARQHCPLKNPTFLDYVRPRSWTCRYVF
# UniProt P42773: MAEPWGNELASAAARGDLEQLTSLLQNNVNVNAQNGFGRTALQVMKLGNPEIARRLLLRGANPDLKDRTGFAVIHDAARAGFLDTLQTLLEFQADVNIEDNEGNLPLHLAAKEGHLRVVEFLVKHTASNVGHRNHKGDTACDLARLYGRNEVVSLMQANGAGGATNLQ
# The other results are listed elsewhere or left out. Most entries show no effect beyond the scatter of the controls.
# Compound: Cc1nc(Nc2ncc(C(=O)Nc3c(C)cccc3Cl)s2)cc(N2CCN(CCO)CC2)n1 [dasatinib]
# Assay: log2 fold change of tryptic peptide abundance, ligand vs vehicle (limited proteolysis) (log2 ratio); higher = more trypsin-susceptible (destabilized)
# Details: ligand concentration: 5 uM; sample: K562 cleared lysate
row,Target,log2 fold change
1,"RFC1 (peptide sequence: IPIICMCNDRNHPK, peptide start residue: 746) (UniProt P35251)",-0.858
2,"WEE1 (peptide sequence: YTTEFHELEK, peptide start residue: 295) (UniProt P30291)",-0.374
3,"RPA3 (peptide sequence: EDSHPFDLGLYNEAVK, peptide start residue: 89) (UniProt P35244)",-0.0297
4,"GTF2E2 (peptide sequence: QKQWLMTEALVNNPK, peptide start residue: 115) (UniProt P29084)",-0.342
5,"STAT3 (peptide sequence: IVARCLWEESR, peptide start residue: 104) (UniProt P40763)",-0.456
6,"SERPINB1 (peptide sequence: LVLVNAIYFK, peptide start residue: 159) (UniProt P30740)",0.279
7,"PRDX5 (peptide sequence: THLPGFVEQAEALKAK, peptide start residue: 103) (UniProt P30044)",-0.204
8,"GLRX (peptide sequence: AQEILSQLPIK, peptide start residue: 29) (UniProt P35754)",-0.599
9,"SOAT1 (peptide sequence: LTAEAEELKPFFMK, peptide start residue: 54) (UniProt P35610)",0.328
10,"CDKN2C (peptide sequence: TGFAVIHDAAR, peptide start residue: 69) (UniProt P42773)",-0.653
